The text below walks through data of PubChem BioAssay AID206 (DTP/NCI, 2004).

Records with an inconclusive call do not appear.

The test system of the experiment is nude mice, HT29 intrarenal xenograft, tumor weight T/C. Nature of the experiment: NCI In Vivo Anticancer Drug Screen. Data for tumor model HT29;CX-1 Human Adenocarcinoma (MER+) (intrarenal inoculation) in NU/NU Swiss (nude) mice. To be noted: endpoint: mean tumor weight change, schedule: Q01DX010 (sc), vehicle: Klucel (hydroxypropylcellulose) (HPC), higher = larger tumour. The protocol:
The antitumor activity of compounds was measured in mice bearing transplantable tumors. Survival or tumor size were measured and the results are expressed as the measurement made in the treated group (T) divided by the measurement made in the vehicle treated control group (C). The tumor model used in this assay is HT29;CX-1 Human Adenocarcinoma (MER+) (intrarenal inoculation) in NU/NU Swiss (nude) mice

With `COc1cc2c(c(OC)c1OC)-c1ccc(OC)c(=O)cc1[C@@H](N)CC2`, the T/C runs as follows: (dose: 0.31 mg/kg/injection) 91 % of control; (dose: 0.63 mg/kg/injection) 96 % of control; (dose: 1.25 mg/kg/injection) 94 % of control; (dose: 2.5 mg/kg/injection) 50 % of control.
